Values quoted from earlier work, collected in patent US6579860B1, “Interleukin-6 production inhibitors” (Toray Industries, Inc., priority 1998, dated 2003).

Tested on: interleukin-6 concentration in serum
Conditions: administration to Paget's disease patients; Schweitzer D H. et al., J. Bone and Miner. Res. 10(6)

For `NCCCC(O)(P(=O)(O)O)P(=O)(O)O` [alendronate], which “effect on interleukin-6 concentration in serum” value is on record?
The value was “increased interleukin-6 concentration in serum”.
